According to PubChem BioAssay AID540275 (National Center for Advancing Translational Sciences (NCATS), 2011):
The campaign covered roughly 320,000 compounds. About 620 (0.19%) were called active. The inconclusive results got no clear call from the source; some entries with a clear call stand among them for comparison. No stated cut-off is given here; in the data, active means activation above about 80%; inconclusive means between about 30% and that limit; inactive means weaker than that.

Chains of the proteins cited; added tags and fusions are not shown.
UniProt Q8NER1, whole entry, looked up: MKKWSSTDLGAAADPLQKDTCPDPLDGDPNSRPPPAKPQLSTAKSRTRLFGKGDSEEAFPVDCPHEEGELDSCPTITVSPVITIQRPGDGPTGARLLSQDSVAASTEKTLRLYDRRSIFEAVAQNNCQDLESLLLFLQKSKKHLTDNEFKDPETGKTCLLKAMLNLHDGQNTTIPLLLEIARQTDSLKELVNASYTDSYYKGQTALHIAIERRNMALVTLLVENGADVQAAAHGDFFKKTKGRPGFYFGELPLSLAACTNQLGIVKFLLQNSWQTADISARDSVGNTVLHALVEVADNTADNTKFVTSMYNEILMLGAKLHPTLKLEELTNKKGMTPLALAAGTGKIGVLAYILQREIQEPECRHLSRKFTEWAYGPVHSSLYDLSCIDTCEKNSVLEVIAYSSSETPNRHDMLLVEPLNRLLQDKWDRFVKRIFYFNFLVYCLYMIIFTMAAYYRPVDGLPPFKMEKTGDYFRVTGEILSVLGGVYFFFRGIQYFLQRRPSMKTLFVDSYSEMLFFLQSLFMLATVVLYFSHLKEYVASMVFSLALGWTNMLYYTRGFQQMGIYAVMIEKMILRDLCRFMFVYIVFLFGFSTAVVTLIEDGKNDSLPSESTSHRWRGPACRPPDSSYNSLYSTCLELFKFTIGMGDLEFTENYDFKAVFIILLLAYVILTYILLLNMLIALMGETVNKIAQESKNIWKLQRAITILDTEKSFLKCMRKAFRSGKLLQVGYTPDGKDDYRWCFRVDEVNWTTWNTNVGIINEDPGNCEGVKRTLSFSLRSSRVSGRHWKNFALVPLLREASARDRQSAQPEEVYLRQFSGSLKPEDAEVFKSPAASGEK

target: Transient receptor potential cation channel subfamily V member 1 (Homo sapiens) (UniProt Q8NER1); assay: HTS Assay for Compounds that Act as Agonists of the Vanilloid Receptor 1; conditions: TRPV1-expressing cells, Fluo-8 calcium influx, agonist mode; at 8.33 µM, hits give high values; further: 0% is about no effect
Procedure, shortened: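 Cells expressing TRPV1 were dye-loaded with Fluo-8 and read kinetically: 10 s baseline, 3 min after compound (agonist portion), then 2 min after EC20 capsaicin (allosteric enhancer portion). Calcium-bound dye fluorescence at 480/520 nm.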

| SMILES | activation |
| --- | --- |
| CCN(CC)C(=O)CSc1nnc(-c2ccccn2)n1Cc1ccccc1 | inconclusive: 49.4% |
| COc1ccc(C(CCNCc2ccc(N(C)C)cc2)C(C)C)cc1 (configuration not stated) | inactive: 14.3% |
| COc1ccc(/C=N\NC(=O)c2ccccc2)cc1COc1ccccc1 | inconclusive: 42.9% |
| Cc1ccc(CNC(=O)CSc2nc(N3CCCCC3)nc(N3CCCCC3)n2)cc1 | inconclusive: 43.2% |
| Cn1nnnc1NCc1ccc(Cl)c(Cl)c1 | inconclusive: 59.7% |
| Cc1ccc(C(=O)CCC2CCCCC2=O)cc1 (configuration not stated) | inconclusive: 45% |
| CCOc1ccccc1N1CCN(Cc2ccc(Br)s2)CC1 | inconclusive: 36.8% |
| O=C1N/C(=N\S(=O)(=O)Cc2ccccc2)S/C1=C/c1cc([N+](=O)[O-])ccc1O | inconclusive: 48.9% |
| CCc1cc2cc(C)ccc2nc1SCC(=O)NC1CCCC1 | inconclusive: 30.4% |
| CCC(=O)N1CCN(c2ccc(NC(=O)c3ccc(N4CCOCC4)c([N+](=O)[O-])c3)cc2)CC1 | inconclusive: 31.2% |
| CC1CCN(c2ccc(NC(=O)c3ccc([N+](=O)[O-])o3)cc2)CC1 | inconclusive: 53.4% |
| CCCn1c(SCC(=O)N2CCCC2=O)nc2ccccc2c1=O | inconclusive: 31.7% |
| Cc1cc(-n2[nH]c(C)c(C)c2=O)nc(-c2ccccc2O)n1 | inactive: 6.55% |
| CCCC(=O)Nc1ccc(-c2nc3cc(C)c(C)cc3o2)cc1 | inactive: -1.79% |
| CCn1cc(C(=O)NCC2CCCO2)c(=O)c2cc(S(=O)(=O)N3CCC(C)CC3)ccc21 (configuration not stated) | inconclusive: 34% |
| NS(=O)(=O)c1ccc(N/N=C/c2cn(-c3ccccc3)nc2-c2cccs2)cc1 | inactive: 8.68% |
| COC(=O)N1C(=O)[C@](c2ccccc2)(C2CCCCC2)N1C(=O)OC | inconclusive: 33.3% |
| O=c1c2ccccc2sn1-c1ccc(F)cc1 | inconclusive: 38.8% |
| CCCCNC(=O)COC(=O)c1ccc(Cl)c(S(N)(=O)=O)c1 | inactive: 3.35% |

| SMILES | activation |
| --- | --- |
| O=C(Nc1nccs1)c1ccc(Cl)c(S(=O)(=O)N2CCCCC2)c1 | inconclusive: 33.9% |
| CC(C)Oc1ccc(S(=O)(=O)N2CCOCC2)cc1NC(=O)CCCSc1ccccc1 | inactive: 25.6% |
| Cc1ccc(OCC(=O)Nc2ccccc2C(N)=O)cc1 | inconclusive: 72.5% |
| CCCCNC(=O)NC(C(=O)OC)C12CC3CC(CC(C3)C1)C2 (configuration not stated) | inconclusive: 33.4% |
| O=C(CSc1nc2ccsc2c(=O)n1CC1CCC(C(=O)O)CC1)c1ccc(F)cc1 (configuration not stated) | inactive: -2.96% |
| CC1CCCN(Cc2c(C(=O)N3CCc4ccccc4C3)nc3ccc(Cl)cn23)C1 (configuration not stated) | inconclusive: 57% |
| Cc1cc(N=Cc2c(O)n(-c3cccc(C(F)(F)F)c3)c(=O)c3ccccc23)no1 | inconclusive: 36.3% |
| CC(C)(C)NC(=S)NCCc1ccccc1 | inconclusive: 55.4% |
| CCCc1cc(C(=O)N2CCN(c3ccccc3C)CC2)cs1 | inconclusive: 55% |
| Cc1nn(-c2cccc(Cl)c2)nc1C(=O)Nc1cccc(C(=O)NC2CC2)c1 | inconclusive: 33.9% |
| O=C(Nc1ccccc1)c1ccc(-c2ccccc2)s1 | inconclusive: 55.2% |
| CCCC(=O)C1=C(O)C(C(=O)OC)C(C)(C)CC1=Nc1ccccc1 (configuration not stated) | inconclusive: 33.2% |
| CC1(C)CCN2CCC(C)(C)c3c(O)ccc1c32 | inconclusive: 61.8% |
| O=C(NCc1nnnn1-c1ccc(F)cc1)c1ccc([N+](=O)[O-])o1 | inactive: 0.0176% |
| O=C1C=C(c2ccc(F)cc2OCc2ccccc2)C[C@@H](c2ccc3c(c2)OCO3)C1 | inconclusive: 30.9% |
| CC(C)CN1C(=O)c2ccc(NC(=O)c3ccccc3F)cc2C1=O | inconclusive: 48.9% |
| O=[N+]([O-])c1cccc(/C=N/Nc2nc(N3CCOCC3)nc(N3CCOCC3)n2)c1 | inconclusive: 74.4% |
| COc1ccc(S(=O)(=O)c2ccc(OC)cc2)cc1 | inactive: -0.801% |
| COc1cccc(C(=O)NOCc2ccc(C)cc2)c1OC | inconclusive: 45.7% |

| SMILES | activation |
| --- | --- |
| COc1ccccc1CC(Cc1nc2ccccc2[nH]1)c1nc2ccccc2[nH]1 (configuration not stated) | inconclusive: 63.9% |
| CCN(CC)C(=O)c1c(-c2ccccc2)oc2ccc(O)cc12 | inactive: -5.52% |
| CS/C(N)=N/N=C/c1cc(Br)cc(Br)c1O | inactive: 0.428% |
| Cc1ccc(C(=O)O/N=C(\N)c2cccc([N+](=O)[O-])c2)cc1 | inconclusive: 64.5% |
| CCOC(=O)c1c(NC(=O)C2COc3ccccc3O2)sc2c1CCN(Cc1ccccc1)C2 (configuration not stated) | inconclusive: 62.2% |
| S=C(NCc1ccccc1)N1CCN(Cc2ccc3c(c2)OCO3)CC1 | inconclusive: 36.5% |
| COCCNc1nc(-n2nc(C)cc2C)nc2sc3c(c12)CCCC3 | inconclusive: 64.7% |
| C/C(=N\Nc1nc2ccccc2[nH]1)c1cc2ccccc2o1 | inactive: 9.36% |
| NS(=O)(=O)c1ccc(CCNC(=O)c2cc(-c3ccccc3)nc3ccccc23)cc1 | inconclusive: 69.6% |
| Cc1cc(NC(=O)c2cccc(S(=O)(=O)N3CCCCC3)c2)no1 | inactive: 21% |
| CC(C)c1ccc(S(=O)(=O)N2CCN(C(=O)C3CCCCC3)CC2)cc1 | inconclusive: 33.7% |
| COc1ccc(CNC(=O)/C=C/c2ccc(OCCCF)cc2)cc1OC | inconclusive: 68.5% |
| Cc1ccc(S(=O)(=O)N2CCOCC2)cc1C(=O)NC(=S)N1CC(C)CC(C)C1 (configuration not stated) | inconclusive: 60.6% |
| Nc1nc(CSC(=S)N2CCOCC2)nc(Nc2ccc(F)cc2)n1 | inconclusive: 42% |
| CN(C(=O)CCS(=O)(=O)c1cc2c(cc1Cl)NC(=O)CO2)C1CCCCC1 | inconclusive: 37.5% |
| CCOC(=O)N1CCN(C(=O)c2ccc3c(c2)N(Cc2ccc(F)cc2)CCS3)CC1 | inconclusive: 32.2% |
| Cc1ccc(S(C)(=O)=O)cc1C(=O)OCC(=O)N1CCCC1=O | inactive: -3.07% |
| COc1cc([N+](=O)[O-])cc(/C=N/NC(=O)C(O)(c2ccccc2)c2ccccc2)c1O | inactive: -3.16% |
| CCCc1ccc(C(C)NC(=S)NCc2ccc(F)cc2)cc1 (configuration not stated) | inconclusive: 59.4% |

Some of the entries so far, bar-delimited.
SMILES | activation
C/C(=N\Nc1nc2ccccc2[nH]1)c1cc2ccccc2o1 | inactive: 9.36%
NS(=O)(=O)c1ccc(CCNC(=O)c2cc(-c3ccccc3)nc3ccccc23)cc1 | inconclusive: 69.6%
Cc1cc(NC(=O)c2cccc(S(=O)(=O)N3CCCCC3)c2)no1 | inactive: 21%
CC(C)c1ccc(S(=O)(=O)N2CCN(C(=O)C3CCCCC3)CC2)cc1 | inconclusive: 33.7%
COc1ccc(CNC(=O)/C=C/c2ccc(OCCCF)cc2)cc1OC | inconclusive: 68.5%
Cc1ccc(S(=O)(=O)N2CCOCC2)cc1C(=O)NC(=S)N1CC(C)CC(C)C1 (configuration not stated) | inconclusive: 60.6%
Nc1nc(CSC(=S)N2CCOCC2)nc(Nc2ccc(F)cc2)n1 | inconclusive: 42%
CN(C(=O)CCS(=O)(=O)c1cc2c(cc1Cl)NC(=O)CO2)C1CCCCC1 | inconclusive: 37.5%
CCOC(=O)N1CCN(C(=O)c2ccc3c(c2)N(Cc2ccc(F)cc2)CCS3)CC1 | inconclusive: 32.2%
Cc1ccc(S(C)(=O)=O)cc1C(=O)OCC(=O)N1CCCC1=O | inactive: -3.07%
COc1cc([N+](=O)[O-])cc(/C=N/NC(=O)C(O)(c2ccccc2)c2ccccc2)c1O | inactive: -3.16%
CCCc1ccc(C(C)NC(=S)NCc2ccc(F)cc2)cc1 (configuration not stated) | inconclusive: 59.4%
